Measured values published in patent US8124424B2, “Single molecule-format bioluminescent probe” (National Institute of Advanced Industrial Science and …, priority 2007, dated 2012).
Results are given in words; binding and its absence hold for the method and conditions named. Some binding calls cover weakened binding; strength is not graded here.

Amino acid sequences for entries named in this document (tags omitted). Residues count along the entry.
UniProt P10275, residues 672-910: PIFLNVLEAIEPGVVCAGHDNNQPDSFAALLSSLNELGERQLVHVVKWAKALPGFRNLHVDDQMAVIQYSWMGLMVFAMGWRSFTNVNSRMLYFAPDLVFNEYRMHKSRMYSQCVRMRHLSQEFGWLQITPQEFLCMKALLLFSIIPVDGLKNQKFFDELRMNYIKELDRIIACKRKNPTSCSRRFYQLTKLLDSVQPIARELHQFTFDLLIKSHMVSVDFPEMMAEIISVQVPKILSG

Legend:
[1] = biological target: androgen receptor ligand binding domain (AR LBD; 672-910 AA) (human) (UniProt P10275); assay: split firefly luciferase complementation, single-chain probe pAR-NC, HeLa cells, DHT with or without antagonists
[2] = biological target: androgen receptor ligand binding domain (AR LBD; 672-910 AA) (human) (UniProt P10275); assay: split firefly luciferase complementation, single-chain probe pAR-NC, HeLa cells, 10^-5 M DHT
[3] = biological target: androgen receptor ligand binding domain (AR LBD; 672-910 AA) (human) (UniProt P10275); assay: split click beetle luciferase complementation, single-chain probe, HeLa cells, with and without 10^-5 M DHT
[4] = biological target: androgen receptor ligand binding domain (AR LBD; 672-910 AA) (human) (UniProt P10275); assay: split firefly luciferase complementation, single-chain probe pAR-mut, HeLa cells, 10^-5 M DHT
[5] = biological target: androgen receptor ligand binding domain (AR LBD; 672-910 AA) (human) (UniProt P10275); assay: split click beetle luciferase complementation, single-chain probe pSimbe-LXP, MCF-7 cells, with and without 10^-5 M DHT
[6] = biological target: androgen receptor ligand binding domain (AR LBD; 672-910 AA) (human) (UniProt P10275); assay: split click beetle luciferase complementation, single-chain probe pSimbe-LXA, MCF-7 cells, with and without 10^-5 M DHT

## RGAFQNLFQSV [AR N-terminal motif peptide (11 AA; 20RGAFQNLFQSV30), 'FQNLF' motif of human AR NTD]
[1]
  binding: binds
[2]
  binding: binds
[3]
  binding: binds

## RGAAQNLFQSV [alanine mutant of the AR N-terminal motif (11 AA; 20…30)]
[4]
  binding: binds

## KHKILHRLLQDSS [forward sequence of 'LXXLL' motif (686…698) from Xenopus TIF2]
[5]
  binding: binds
[3]
  binding: binds

## SSDQLLRHLIKHK [reverse sequence of 'LXXLL' motif (698…686) from Xenopus TIF2]
[6]
  binding: binds
[3]
  binding: binds
